Experimental data as given in PMC11966828.
These are yes or no findings as the source states them, for the method shown. In cells and extracts the contact can be indirect. Some binding calls cover weakened binding; strength is not graded here. For some assays here: Tags and fused reporters may be left off the sequences shown.

T1: Flag-tagged edited CYP1A1 (CYP1A1_I462V) (UniProt P04798)
T1 sequence: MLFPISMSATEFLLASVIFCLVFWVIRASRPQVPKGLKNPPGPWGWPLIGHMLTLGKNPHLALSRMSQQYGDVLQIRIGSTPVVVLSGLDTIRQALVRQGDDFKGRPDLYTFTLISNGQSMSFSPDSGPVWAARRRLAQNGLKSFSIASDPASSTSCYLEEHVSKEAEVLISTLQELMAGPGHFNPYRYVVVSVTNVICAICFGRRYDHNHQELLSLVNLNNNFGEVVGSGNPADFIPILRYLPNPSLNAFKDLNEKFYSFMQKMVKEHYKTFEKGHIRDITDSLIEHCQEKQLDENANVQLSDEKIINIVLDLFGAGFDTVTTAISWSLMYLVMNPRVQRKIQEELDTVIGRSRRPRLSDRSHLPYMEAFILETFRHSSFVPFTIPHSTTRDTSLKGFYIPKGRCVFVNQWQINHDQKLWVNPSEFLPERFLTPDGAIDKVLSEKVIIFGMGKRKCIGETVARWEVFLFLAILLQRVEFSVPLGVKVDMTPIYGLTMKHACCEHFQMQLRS

T2: endogenous CYP1A1 I462V of A549^I462V cells (human (endogenous in A549)) (UniProt P04798)
T2 sequence: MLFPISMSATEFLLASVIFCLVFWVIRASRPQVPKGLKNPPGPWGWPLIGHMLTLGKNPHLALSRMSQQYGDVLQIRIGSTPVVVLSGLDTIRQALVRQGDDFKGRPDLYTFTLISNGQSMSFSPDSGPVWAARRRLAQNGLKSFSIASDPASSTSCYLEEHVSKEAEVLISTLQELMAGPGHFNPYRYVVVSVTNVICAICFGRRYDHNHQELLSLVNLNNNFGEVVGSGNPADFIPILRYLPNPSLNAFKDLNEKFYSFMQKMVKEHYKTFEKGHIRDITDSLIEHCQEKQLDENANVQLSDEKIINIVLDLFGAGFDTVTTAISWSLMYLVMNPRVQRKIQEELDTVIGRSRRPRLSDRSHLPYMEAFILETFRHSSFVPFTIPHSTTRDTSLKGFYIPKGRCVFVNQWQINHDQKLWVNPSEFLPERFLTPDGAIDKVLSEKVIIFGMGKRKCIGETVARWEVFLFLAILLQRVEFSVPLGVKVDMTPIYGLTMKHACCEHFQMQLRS


Experiments:
[1] = molecular target: T1, Flag-tagged edited CYP1A1 (CYP1A1_I462V); experiment: co-IP; 293T cells cotransfected with HA-HO-1 and Flag-CYP1A1 or Flag-CYP1A1-edited, lysed 24 h after transfection; anti-Flag antibody with protein G magnetic beads, 20 min at room temperature, six washes; immunoblot with anti-HA; IgG as negative control
[2] = molecular target: T2, endogenous CYP1A1 I462V of A549^I462V cells (human (endogenous in A549)); experiment: co-IP; endogenous co-IP from A549 or A549^I462V cells with an anti-CYP1A1 antibody; endogenous HO-1 detected by blot

binding [1]	binding [2]	Binder
binds	–	HA-tagged heme oxygenase-1 (HO-1) (enzyme, UniProt P09601 1-288) MERPQPDSMPQDLSEALKEATKEVHTQAENAEFMRNFQKGQVTRDGFKLVMASLYHIYVALEEEIERNKESPVFAPVYFPEELHRKAALEQDLAFWYGPRWQEVIPYTPAMQRYVKRLHEVGRTEPELLVAHAYTRYLGDLSGGQVLKKIAQKALDLPSSGEGLAFFTFPNIASATKFKQLYRSRMNSLEMTPAVRQRVIEEAKTAFLLNIQLFEELQELLTHDTKDQSPSRAPGLRQRASNKVQDSAPVETPRGKPPLNTRSQAPLLRWVLTLSFLVATVAVGLYAM
–	binds	endogenous heme oxygenase-1 (HO-1) of A549 and A549^I462V cells (enzyme, UniProt P09601 1-288) MERPQPDSMPQDLSEALKEATKEVHTQAENAEFMRNFQKGQVTRDGFKLVMASLYHIYVALEEEIERNKESPVFAPVYFPEELHRKAALEQDLAFWYGPRWQEVIPYTPAMQRYVKRLHEVGRTEPELLVAHAYTRYLGDLSGGQVLKKIAQKALDLPSSGEGLAFFTFPNIASATKFKQLYRSRMNSLEMTPAVRQRVIEEAKTAFLLNIQLFEELQELLTHDTKDQSPSRAPGLRQRASNKVQDSAPVETPRGKPPLNTRSQAPLLRWVLTLSFLVATVAVGLYAM
